Experimental data reported in the supplement of paper PMC10849652.
This is one part of the list.

By UniProt entry, the sequences of proteins in these tests, tags left out. Where a name states a change or a piece, a line headed by the entry shows the natural chain unless it says otherwise.
UniProt P22061: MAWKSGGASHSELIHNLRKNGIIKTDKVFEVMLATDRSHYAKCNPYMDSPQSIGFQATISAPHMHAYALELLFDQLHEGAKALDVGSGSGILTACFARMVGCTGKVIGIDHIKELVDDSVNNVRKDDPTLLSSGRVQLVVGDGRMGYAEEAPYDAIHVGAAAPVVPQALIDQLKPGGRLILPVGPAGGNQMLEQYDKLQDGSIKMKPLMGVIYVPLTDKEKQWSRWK
UniProt O96011: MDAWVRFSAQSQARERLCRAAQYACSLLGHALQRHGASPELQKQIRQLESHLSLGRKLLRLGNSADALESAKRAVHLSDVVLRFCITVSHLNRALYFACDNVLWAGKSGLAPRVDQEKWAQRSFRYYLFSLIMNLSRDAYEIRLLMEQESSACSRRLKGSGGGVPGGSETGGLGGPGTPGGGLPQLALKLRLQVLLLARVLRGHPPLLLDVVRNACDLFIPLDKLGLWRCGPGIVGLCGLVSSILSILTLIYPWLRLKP
UniProt P11177, whole entry, looked up: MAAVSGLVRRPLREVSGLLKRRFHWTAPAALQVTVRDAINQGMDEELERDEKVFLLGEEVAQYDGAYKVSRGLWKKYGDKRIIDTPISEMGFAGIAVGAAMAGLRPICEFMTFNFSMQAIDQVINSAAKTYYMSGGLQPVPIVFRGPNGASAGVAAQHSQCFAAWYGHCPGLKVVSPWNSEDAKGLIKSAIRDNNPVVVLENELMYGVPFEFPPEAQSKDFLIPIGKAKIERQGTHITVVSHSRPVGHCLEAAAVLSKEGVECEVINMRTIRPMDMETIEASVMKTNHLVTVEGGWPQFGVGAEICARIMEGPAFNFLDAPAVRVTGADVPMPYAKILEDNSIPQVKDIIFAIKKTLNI
UniProt Q8N0Y7: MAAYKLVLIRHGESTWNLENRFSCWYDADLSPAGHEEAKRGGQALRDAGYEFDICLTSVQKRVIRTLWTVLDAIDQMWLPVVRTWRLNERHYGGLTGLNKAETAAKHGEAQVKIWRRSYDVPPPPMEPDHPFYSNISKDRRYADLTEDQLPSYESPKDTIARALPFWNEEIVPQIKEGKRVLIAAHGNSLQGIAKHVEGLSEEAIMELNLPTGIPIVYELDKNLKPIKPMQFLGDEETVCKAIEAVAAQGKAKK
UniProt P05166: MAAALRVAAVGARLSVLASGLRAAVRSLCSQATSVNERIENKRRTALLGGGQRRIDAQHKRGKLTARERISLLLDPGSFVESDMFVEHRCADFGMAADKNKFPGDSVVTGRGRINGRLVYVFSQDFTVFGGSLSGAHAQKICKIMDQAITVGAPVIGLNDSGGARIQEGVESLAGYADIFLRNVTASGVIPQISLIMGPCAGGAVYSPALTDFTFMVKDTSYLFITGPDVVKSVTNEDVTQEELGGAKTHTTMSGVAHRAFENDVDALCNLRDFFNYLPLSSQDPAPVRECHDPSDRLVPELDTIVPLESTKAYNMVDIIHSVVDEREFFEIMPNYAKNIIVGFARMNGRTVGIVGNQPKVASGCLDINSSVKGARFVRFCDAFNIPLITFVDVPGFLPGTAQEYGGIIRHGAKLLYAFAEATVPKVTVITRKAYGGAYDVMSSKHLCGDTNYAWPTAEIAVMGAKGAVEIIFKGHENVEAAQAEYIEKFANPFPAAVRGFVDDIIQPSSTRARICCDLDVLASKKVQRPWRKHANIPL
UniProt Q5JVF3: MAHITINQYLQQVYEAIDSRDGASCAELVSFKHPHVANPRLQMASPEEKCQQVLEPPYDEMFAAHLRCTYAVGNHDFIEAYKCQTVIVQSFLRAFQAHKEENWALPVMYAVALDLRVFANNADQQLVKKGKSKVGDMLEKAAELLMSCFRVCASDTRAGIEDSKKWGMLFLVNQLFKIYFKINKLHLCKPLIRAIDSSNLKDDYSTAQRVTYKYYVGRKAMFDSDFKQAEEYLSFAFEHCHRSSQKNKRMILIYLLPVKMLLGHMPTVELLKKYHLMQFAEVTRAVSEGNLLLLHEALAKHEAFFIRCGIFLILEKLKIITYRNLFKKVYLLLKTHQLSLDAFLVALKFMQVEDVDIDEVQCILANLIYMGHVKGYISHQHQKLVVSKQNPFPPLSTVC
UniProt P30086: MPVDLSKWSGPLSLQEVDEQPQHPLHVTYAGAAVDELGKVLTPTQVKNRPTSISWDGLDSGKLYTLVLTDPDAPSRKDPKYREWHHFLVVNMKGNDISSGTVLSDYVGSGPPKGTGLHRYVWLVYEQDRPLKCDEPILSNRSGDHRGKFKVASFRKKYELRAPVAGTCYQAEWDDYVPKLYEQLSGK
UniProt Q16875: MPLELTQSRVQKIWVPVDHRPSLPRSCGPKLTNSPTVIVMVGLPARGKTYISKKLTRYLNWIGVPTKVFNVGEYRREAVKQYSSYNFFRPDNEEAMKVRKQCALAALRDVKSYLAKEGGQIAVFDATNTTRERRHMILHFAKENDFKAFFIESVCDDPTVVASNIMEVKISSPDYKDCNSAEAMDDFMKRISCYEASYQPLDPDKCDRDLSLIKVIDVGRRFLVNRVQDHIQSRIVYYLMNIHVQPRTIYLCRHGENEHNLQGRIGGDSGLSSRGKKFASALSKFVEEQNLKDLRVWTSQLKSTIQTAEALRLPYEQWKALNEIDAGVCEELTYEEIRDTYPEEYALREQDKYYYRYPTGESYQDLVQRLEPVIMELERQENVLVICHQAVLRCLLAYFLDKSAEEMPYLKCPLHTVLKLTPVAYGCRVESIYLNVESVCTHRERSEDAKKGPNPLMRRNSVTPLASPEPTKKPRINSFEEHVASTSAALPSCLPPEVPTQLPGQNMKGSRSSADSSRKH

Key:
Assay in all cases: log2 fold change, soluble protein after heating vs DMSO (PISA); higher = thermal stabilisation; K562 lysate, 10 uM; active = over 0.2 and 3.5 SD of the protein, either way, in both replicates (recomputed)
alvocidib = compound: CN1CC[C@H](c2c(O)cc(O)c3c(=O)cc(-c4ccccc4Cl)oc23)[C@H](O)C1 [alvocidib]
How it was run: (§1)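 A 30 min treatment with 10 μM compound was applied to crude K562 extract at 1 mg/mL protein in PBS pH 7.4 with 1 mM MgCl2. Heating for 3 min spanned 48°C-58°C, after which aliquots were pooled, adjusted to 0.5% NP-40 at 4°C and spun at 21,000xg for 90 min. TMTpro 16plex LC-MS/MS of the supernatant, with channel sums equalised, gave values recorded as log-two fold change in thermal stability against solvent controls, from duplicates.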

Tubastatin A = compound: CN1CCc2c(c3ccccc3n2Cc2ccc(C(=O)NO)cc2)C1 [Tubastatin A]
How it was run: as §1

[1] = compound: CNC(=O)C1=CC=CC=C1NC2=NC(=NC=C2Cl)NC3=C(C=C(C=C3)N4CCOCC4)OC
How it was run: as §1

defactinib = compound: CNC(=O)c1ccc(Nc2ncc(C(F)(F)F)c(NCc3nccnc3N(C)S(C)(=O)=O)n2)cc1 [defactinib]
How it was run: as §1

[2] = compound: CNc1nc(-c2ccc3c(N)n[nH]c3c2)cc(N2C[C@@H](C(=O)NC3CCCCC3)CC[C@H]2C)n1
How it was run: as §1

encorafenib = compound: COC(=O)N[C@@H](C)CNc1nccc(-c2cn(C(C)C)nc2-c2cc(Cl)cc(NS(C)(=O)=O)c2F)n1 [encorafenib]
How it was run: as §1

[3] = compound: COC(=O)[C@H](CCSC)NC(=O)C1=C(C=C(C=C1)NC[C@H](CS)N)C2=CC=CC=C2
How it was run: as §1

alisertib = compound: COc1cc(Nc2ncc3c(n2)-c2ccc(Cl)cc2C(c2c(F)cccc2OC)=NC3)ccc1C(=O)O [alisertib]
How it was run: as §1

[4] = compound: COc1cc2nc(-c3cc(F)ccc3O)nc(N[C@@H]3CNC[C@H]3C(C)(C)O)c2cc1OC
How it was run: as §1

gefitinib = compound: COc1cc2ncnc(Nc3ccc(F)c(Cl)c3)c2cc1OCCCN1CCOCC1 [gefitinib]
How it was run: as §1

lapatinib = compound: CS(=O)(=O)CCNCc1ccc(-c2ccc3ncnc(Nc4ccc(OCc5cccc(F)c5)c(Cl)c4)c3c2)o1 [lapatinib]
How it was run: as §1

pictilisib = compound: CS(=O)(=O)N1CCN(Cc2cc3nc(-c4cccc5[nH]ncc45)nc(N4CCOCC4)c3s2)CC1 [pictilisib]
How it was run: as §1

crizotinib = compound: C[C@@H](Oc1cc(-c2cnn(C3CCNCC3)c2)cnc1N)c1c(Cl)ccc(F)c1Cl [crizotinib]
How it was run: as §1

[5] = compound: C[C@H](C1=CC=C(C=C1)C(=O)NC2=C3C=CNC3=NC=C2)N
How it was run: as §1

duvelisib = compound: C[C@H](Nc1ncnc2nc[nH]c12)c1cc2cccc(Cl)c2c(=O)n1-c1ccccc1 [duvelisib]
How it was run: as §1

gandotinib = compound: Cc1cc(Nc2cc(CN3CCOCC3)c3nc(C)c(Cc4ccc(Cl)cc4F)n3n2)n[nH]1 [gandotinib]
How it was run: as §1

tozasertib = compound: Cc1cc(Nc2cc(N3CCN(C)CC3)nc(Sc3ccc(NC(=O)C4CC4)cc3)n2)n[nH]1 [tozasertib]
How it was run: as §1

doramapimod = compound: Cc1ccc(-n2nc(C(C)(C)C)cc2NC(=O)Nc2ccc(OCCN3CCOCC3)c3ccccc23)cc1 [doramapimod]
How it was run: as §1

bafetinib = compound: Cc1ccc(NC(=O)c2ccc(CN3CC[C@H](N(C)C)C3)c(C(F)(F)F)c2)cc1Nc1nccc(-c2cncnc2)n1 [bafetinib]
How it was run: as §1

[6] = compound: Cc1cccc(CC(=O)N2CCc3c2ccc(-c2cn(C)c4ncnc(N)c24)c3F)n1
How it was run: as §1

Measured: log2 fold change

PCMT1 isoform 2 (UniProt P22061)
inactive: alvocidib 0.032 | Tubastatin A 0 | [1] -0.005 | defactinib 0.009 | [2] 0.024 | encorafenib -0.007 | [3] -0.107 | alisertib 0.038 | [4] -0.027 | gefitinib -0.018 | lapatinib 0.006 | pictilisib 0.001 | crizotinib 0.074 | [5] 0.087 | duvelisib -0.016 | gandotinib -0.06 | tozasertib 0.033 | doramapimod -0.029 | bafetinib 0.013 | [6] -0.079

PEX11B (UniProt O96011)
inactive: alvocidib 0.076 | Tubastatin A 0.088 | [1] 0.033 | defactinib 0.046 | [2] 0.036 | encorafenib 0.012 | [3] -0.026 | alisertib 0.075 | [4] -0.023 | gefitinib 0.018 | lapatinib 0.026 | pictilisib 0 | crizotinib -0.086 | [5] -0.232 | duvelisib 0.003 | gandotinib -0.11 | tozasertib -0.027 | doramapimod 0.026 | bafetinib -0.063 | [6] 0.658

PDHB (UniProt P11177)
inactive: alvocidib -0.015 | Tubastatin A -0.038 | [1] -0.016 | defactinib 0.026 | [2] -0.008 | encorafenib -0.013 | [3] 0.054 | alisertib 0.014 | [4] -0.03 | gefitinib 0.019 | lapatinib 0.002 | pictilisib -0.033 | crizotinib -0.041 | [5] 0.012 | duvelisib 0.035 | gandotinib -0.002 | tozasertib -0.007 | doramapimod -0.017 | bafetinib -0.03 | [6] 0.028

Taken from the results shown (two entries):
PEX11B (UniProt O96011)
inactive: alvocidib 0.076 | Tubastatin A 0.088 | [1] 0.033 | defactinib 0.046 | [2] 0.036 | encorafenib 0.012 | [3] -0.026 | alisertib 0.075 | [4] -0.023 | gefitinib 0.018 | lapatinib 0.026 | pictilisib 0 | crizotinib -0.086 | [5] -0.232 | duvelisib 0.003 | gandotinib -0.11 | tozasertib -0.027 | doramapimod 0.026 | bafetinib -0.063 | [6] 0.658

PDHB (UniProt P11177)
inactive: alvocidib -0.015 | Tubastatin A -0.038 | [1] -0.016 | defactinib 0.026 | [2] -0.008 | encorafenib -0.013 | [3] 0.054 | alisertib 0.014 | [4] -0.03 | gefitinib 0.019 | lapatinib 0.002 | pictilisib -0.033 | crizotinib -0.041 | [5] 0.012 | duvelisib 0.035 | gandotinib -0.002 | tozasertib -0.007 | doramapimod -0.017 | bafetinib -0.03 | [6] 0.028

Continuation.

PGAM4 (UniProt Q8N0Y7)
inactive: alvocidib 0.016 | Tubastatin A 0.056 | [1] -0.008 | defactinib -0.006 | [2] 0.036 | encorafenib -0.008 | [3] -0.017 | alisertib 0.028 | [4] 0.014 | gefitinib -0.054 | lapatinib -0.004 | pictilisib 0.034 | crizotinib 0.003 | [5] -0.002 | duvelisib 0.001 | gandotinib 0.008 | tozasertib -0.003 | doramapimod -0.039 | bafetinib 0.023 | [6] -0.028

PCCB (UniProt P05166)
inactive: alvocidib -0.018 | Tubastatin A 0.037 | [1] -0.016 | defactinib 0.026 | [2] -0.015 | encorafenib 0.019 | [3] -0.022 | alisertib 0 | [4] -0.023 | gefitinib 0.045 | lapatinib -0.021 | pictilisib -0.028 | crizotinib 0.007 | [5] -0.043 | duvelisib -0.021 | gandotinib 0.026 | tozasertib -0.013 | doramapimod -0.008 | bafetinib -0.017 | [6] 0.008

PCID2 (UniProt Q5JVF3)
inactive: alvocidib 0 | Tubastatin A -0.084 | [1] -0.034 | defactinib 0.024 | [2] -0.042 | encorafenib 0.08 | [3] -0.066 | alisertib -0.012 | [4] 0.01 | gefitinib -0.009 | lapatinib -0.012 | pictilisib -0.03 | crizotinib -0.016 | [5] 0.039 | duvelisib -0.025 | gandotinib -0.082 | tozasertib 0 | doramapimod 0.034 | bafetinib -0.008 | [6] 0.035

PEBP1 (UniProt P30086)
inactive: alvocidib 0.023 | Tubastatin A 0.026 | [1] 0.005 | defactinib 0.007 | [2] 0.01 | encorafenib -0.044 | [3] -0.029 | alisertib -0.006 | [4] 0.003 | gefitinib 0.001 | lapatinib 0.01 | pictilisib -0.023 | crizotinib 0.033 | [5] -0.03 | duvelisib -0.005 | gandotinib 0.015 | tozasertib 0.004 | doramapimod -0.025 | bafetinib 0.029 | [6] -0.032

PFKFB3 isoform 4 (UniProt Q16875)
inactive: alvocidib -0.012 | Tubastatin A -0.05 | [1] 0.058 | defactinib -0.006 | [2] 0.012 | encorafenib 0.041 | [3] -0.137 | alisertib -0.01 | [4] 0 | gefitinib -0.01 | lapatinib -0.228 | pictilisib -0.057 | crizotinib -0.021 | [5] 0.004 | duvelisib -0.009 | gandotinib -0.006 | tozasertib -0.003 | doramapimod 0.007 | bafetinib -0.03 | [6] 0.007
